Test results from EP4703387A1.
These are yes or no findings as the source states them, for the method shown. Binding can be weak; no strength is given.

Biological target: Macaca fascicularis CD300A (Macaca fascicularis)
Assay: flow cytometry on Macaca fascicularis PBMCs (monocytes)

binding: binds
B1: Antibody NO. 1 (antibody, V domains shown)
VH: EVQLVESGGDLVKPGGSLKLSCAASGFTFSSYGMSWVRQTPDKRLEWVATISSGGSYTYYPDSVKGRFTISRDNAKNTLYLQMSSLKSEDTAMYYCARHGDYGYPWFAYWGQGTLVTVSA
VL: QIVLTQSPAIMSASLGERVTMTCTASSSVSSSYLHWYQQKPGSSPKLWIYSTSNLASGVPARFSGSGSGTSYSLTISSMEAEDAATYYCHQYHRSHTFGGGTKLEIK
